Experimental data reported in article PMC7819943, “Rice protein-binding microarrays: a tool to detect cis-acting elements near promoter regions in rice”.
The other results are listed elsewhere or left out.

Protein sequences, listed by entry. Tags and fused reporters are not part of them.
UniProt Q0JBA9, entry or part of it: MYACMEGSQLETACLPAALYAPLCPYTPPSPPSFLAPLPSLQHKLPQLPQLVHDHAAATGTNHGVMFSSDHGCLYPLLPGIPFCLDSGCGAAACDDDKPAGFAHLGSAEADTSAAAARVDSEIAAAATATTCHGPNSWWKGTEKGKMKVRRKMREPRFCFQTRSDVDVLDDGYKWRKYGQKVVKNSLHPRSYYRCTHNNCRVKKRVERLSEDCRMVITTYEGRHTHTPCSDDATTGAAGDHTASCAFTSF

Each sequence was assayed against OsWRKY34 (Oryza sativa, UniProt Q0JBA9 1-250) (assay: protein-binding microarray (RPBM); PBS, 2% BSA, 51.3 ng/ul salmon testes DNA, 50 uM zinc acetate, 200 nM TF, 25 C, 1 h; high values mean tight binding). Details: protein: recombinant; tags: N-terminal polyhistidine and DsRed monomer fusion (pET32a); label: CyDye5-dUTP incorporated in the synthesized complementary strand; 3' TTTTT single-stranded linker to array surface; dsDNA, one strand shown.
Summary of the method: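 Ni–NTA purification followed expression in E. coli BL21-CodonPlus of transcription factors fused N-terminally to a polyhistidine tag and DsRed. At 200 nM in PBS with 2% BSA, salmon testes DNA and 50 µM zinc acetate, the protein was incubated for 1 h at 25 °C with a custom Agilent array that had been primer-extended with Cy5-dUTP and blocked with 2% BSA. After washing, the array was read on an Axon 4000B scanner. The binding signal is per-feature fluorescence intensity in arbitrary units.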
With “TTGTTTTTGTCAAATTTCATAATTTTGATCAATATTTATACGGAGTCACCTAGTGCAG” the binding signal was 9300 fluorescence intensity (a.u.). For “GGGTTCGTTTACATGTGCTAATTCTTGCTTTGAACAAGCTCGGAGTCACCTAGTGCAG”, the binding signal was 8400 fluorescence intensity (a.u.). For “CCACCTTTTATTTTGCTTCCAAGTACCACGTCACCGCCATCGGAGTCACCTAGTGCAG”, the binding signal was 8500 fluorescence intensity (a.u.). “CCCTATCTTTCCCAACTCACCTCTCTCGTTTTCCACGCGCCGGAGTCACCTAGTGCAG” was tested, and the binding signal was 8790 fluorescence intensity (a.u.). For “GGTGGTGTTCTTTTCTCTGGAGATTAAGATGAAGTTTTTTCGGAGTCACCTAGTGCAG”, the binding signal was 9280 fluorescence intensity (a.u.). For “CATTAAGTATATTGTGTTCTTTTGTGTGAGTTCCCAATTCCGGAGTCACCTAGTGCAG”, the binding signal was 8400 fluorescence intensity (a.u.). “ACTTCTTCTGACATAATATCCTTCAACACAGTTACTGCCCCGGAGTCACCTAGTGCAG” was tested, and the binding signal was 8120 fluorescence intensity (a.u.). “TTTGATTGATTCATCGTTCTCTCATTTGACTTCATTGCTACGGAGTCACCTAGTGCAG” was tested, and the binding signal was 9120 fluorescence intensity (a.u.). “CTAGCTGACCACTCTACTATACACACACATATATACTTTTCGGAGTCACCTAGTGCAG” was tested, and the binding signal was 11800 fluorescence intensity (a.u.). “ACAATCCACATTTTTTTTTCATACTCCCTCCGTTTTTTTACGGAGTCACCTAGTGCAG” was tested, and the binding signal was 9200 fluorescence intensity (a.u.). With “ACCGTGAACGACATGTTCCGGCCTGCCCACGAGTCCCGCACGGAGTCACCTAGTGCAG” the binding signal was 8030 fluorescence intensity (a.u.). With “ATATAGACCCATGTTTTTACCTCCATAACGGATTTATTTTCGGAGTCACCTAGTGCAG” the binding signal was 11500 fluorescence intensity (a.u.). “ACACCTAACCTTGACGCGCATACACGTACACGTACGGCGCCGGAGTCACCTAGTGCAG” was tested, and the binding signal was 8810 fluorescence intensity (a.u.). For “CGGCTGAGGGACGGGCGGGAGGAGGTGGTCGGGTACGGGGCGGAGTCACCTAGTGCAG”, the binding signal was 14700 fluorescence intensity (a.u.). For “CAATTCTGAATTTATCTGCATGATTCTTTCTTGGCGGTACCGGAGTCACCTAGTGCAG”, the binding signal was 8840 fluorescence intensity (a.u.). “TTTTTCTATTTATTTTTCTACTACTTTACCAGCTCATCTACGGAGTCACCTAGTGCAG” was tested, and the binding signal was 8360 fluorescence intensity (a.u.). For “CTATAACAGCTCGGTCTTTTGTTGCATTTGCGTGTACAGTCGGAGTCACCTAGTGCAG”, the binding signal was 10100 fluorescence intensity (a.u.). In the case of “ACAGGGCTTGGAATAGGTTGGTGTACAGGGCGGTAGCTTACGGAGTCACCTAGTGCAG”, the binding signal is reported as 8670 fluorescence intensity (a.u.). With “CCGCATTTAGCATCCAACCACCCTGCATCTGCGGCGTGCACGGAGTCACCTAGTGCAG” the binding signal was 8380 fluorescence intensity (a.u.). “GGCATTCTTTTTCTGCATCATCATCGTCGTCTTCGTCTTCCGGAGTCACCTAGTGCAG” was tested, and the binding signal was 11500 fluorescence intensity (a.u.). For “GCTGTGCTGCTTCCCTAGCTCCTCGGTTGGATCAAAGAGACGGAGTCACCTAGTGCAG”, the binding signal was 8220 fluorescence intensity (a.u.). In the case of “TATGAAGGTTTCTGATCATGTTTTCCATTTTTCCGTTAATCGGAGTCACCTAGTGCAG”, the binding signal is reported as 8670 fluorescence intensity (a.u.). With “AGTTGTCAAAAGTGTCTATATTTAGTTTGTTGCTAAATTTCGGAGTCACCTAGTGCAG” the binding signal was 8640 fluorescence intensity (a.u.). In the case of “AATCACACTAAAAGTTTTATTCATGTTTTATCATCTAAAACGGAGTCACCTAGTGCAG”, the binding signal is reported as 8390 fluorescence intensity (a.u.). In the case of “GCTGAACGCACACCCTGGGCCGTACATGGGCCGCTTGTCACGGAGTCACCTAGTGCAG”, the binding signal is reported as 8640 fluorescence intensity (a.u.). For “CTTCGTATATATATGTATATAAAGTTGGTATATTTACATACGGAGTCACCTAGTGCAG”, the binding signal was 8530 fluorescence intensity (a.u.). “AGGTCCCAAATCACCACAGTCCTTTCAGAATCCTACGTGGCGGAGTCACCTAGTGCAG” was tested, and the binding signal was 8180 fluorescence intensity (a.u.). For “AATTCGATGGTTTCCATCACCGTCCTCACACACAAATTTCCGGAGTCACCTAGTGCAG”, the binding signal was 8240 fluorescence intensity (a.u.). “AAAATTCAAGATCTTCACCCTCAGTCACCTGCCCTGCATTCGGAGTCACCTAGTGCAG” was tested, and the binding signal was 8810 fluorescence intensity (a.u.). With “GGCGAGCGCGTCGTGGAGGGCGGGGAGGGAGTCGGGCTGGCGGAGTCACCTAGTGCAG” the binding signal was 14400 fluorescence intensity (a.u.). In the case of “CCTTACCTTGGCAAGCTAGGCTACTCCTGTCATCCATCTTCGGAGTCACCTAGTGCAG”, the binding signal is reported as 8540 fluorescence intensity (a.u.). For “ATTTCTTATTCTTATCCACACTACATGTTATTGAATAAATCGGAGTCACCTAGTGCAG”, the binding signal was 8140 fluorescence intensity (a.u.). “ATCTGACCATCTTTATATCACGTTGGGCCCCATGCTTCTCCGGAGTCACCTAGTGCAG” was tested, and the binding signal was 11300 fluorescence intensity (a.u.). For “ACCAAACATCCACACTCTACCGCACCTCCTTACGCTCACCCGGAGTCACCTAGTGCAG”, the binding signal was 9900 fluorescence intensity (a.u.). For “ATAGCTACCTACTATGCCGCGTAACTATTATGTGCACCGTCGGAGTCACCTAGTGCAG”, the binding signal was 8700 fluorescence intensity (a.u.). With “GGTATTGTGTTTGGTTGTTGCTTGCTAGCTAGCCGCTGGTCGGAGTCACCTAGTGCAG” the binding signal was 8880 fluorescence intensity (a.u.). “GGGCTTCTTTTGTGAATTTCTTCCCTTGCAGTCTCCCTCGCGGAGTCACCTAGTGCAG” was tested, and the binding signal was 12900 fluorescence intensity (a.u.). In the case of “TTTTTTTTTTCTGTTGGCTCATTGGACAATTACTTGCAAGCGGAGTCACCTAGTGCAG”, the binding signal is reported as 10600 fluorescence intensity (a.u.). For “TTTATAACATTTATTTCCATATATAAGTTATGCTTACATTCGGAGTCACCTAGTGCAG”, the binding signal was 8440 fluorescence intensity (a.u.). For “ACCCCGCAGCCTCACCAACTGCGGCAACCTCACCGTCTTGCGGAGTCACCTAGTGCAG”, the binding signal was 9140 fluorescence intensity (a.u.). In the case of “AGTATTTGGTCGGTGGGTGCTCGCACTGCCCCTGGCAGGCCGGAGTCACCTAGTGCAG”, the binding signal is reported as 8400 fluorescence intensity (a.u.). “CCTATAATATCACGGCTGAGGCATTTCTTTAGGTACAAAGCGGAGTCACCTAGTGCAG” was tested, and the binding signal was 8050 fluorescence intensity (a.u.).
